Results on 2 molecules are retold here after PMC8394291, “Identification of TSPAN4 as Novel Histamine H4 Receptor Interactor” (Biomolecules, 2021).

Sequences of proteins named here, by UniProt entry; tags and fusion partners are left off. A change or cut given only in a name is not applied to a line headed by its entry.
UniProt Q9H3N8, whole entry: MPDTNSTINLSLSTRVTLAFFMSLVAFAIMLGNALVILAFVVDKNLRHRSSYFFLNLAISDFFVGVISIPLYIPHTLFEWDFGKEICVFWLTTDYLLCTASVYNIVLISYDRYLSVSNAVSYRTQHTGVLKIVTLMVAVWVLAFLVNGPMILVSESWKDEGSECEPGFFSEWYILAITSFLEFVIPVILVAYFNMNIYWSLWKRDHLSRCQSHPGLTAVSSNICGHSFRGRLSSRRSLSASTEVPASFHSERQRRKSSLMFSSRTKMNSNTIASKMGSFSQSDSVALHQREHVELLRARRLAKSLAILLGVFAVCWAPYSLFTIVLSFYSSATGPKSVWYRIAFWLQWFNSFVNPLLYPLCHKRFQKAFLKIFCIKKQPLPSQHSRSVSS

No constants are given. Whether binding was seen depends on the method and setting. Binding seen in cells or lysates may run through a third protein. Some binding calls cover weakened binding; strength is not graded here.

One assay concerns the target H4R-V1 (human) (UniProt Q9H3N8). The assay is described as follows: split reporter; BiFC of mVenus fragments V1 and V2 in co-transfected HEK293T cells; microscopy after PFA fixation and plate reader; vehicle or 10 µM histamine for 30 min.
In assay [1] the target is HA-H4R (human) (UniProt Q9H3N8). Put plainly: co-IP; HEK293T cells co-expressing HA-H4R and mVenus-TSPAN4, solubilised in RIPA buffer; anti-HA agarose IP overnight at 4 °C; blot with anti-Venus; vehicle or 10 µM histamine.
Assay [2] has the same target. Put plainly: condition: only cells expressing either HA-H4R or mVenus-TSPAN4 mixed (1:1) before solubilization; co-IP; control: HEK293T cells expressing either HA-H4R or mVenus-TSPAN4 mixed 1:1 before solubilisation; anti-HA agarose IP; blot with anti-Venus.

B1: V2-TSPAN4 (protein, UniProt O14817 2-238)
chain: ARACLQAVKYLMFAFNLLFWLGGCGVLGVGIWLAATQGSFATLSSSFPSLSAANLLIITGAFVMAIGFVGCLGAIKENKCLLLTFFLLLLLVFLLEATIAILFFAYTDKIDRYAQQDLKKGLHLYGTQGNVGLTNAWSIIQTDFRCCGVSNYTDWFEVYNATRVPDSCCLEFSESCGLHAPGTWWKAPCYETVKVWLQENLLAVGIFGLCTALVQILGLTFAMTMYCQVVKADTYCA
B1: the binding entry in the assay with H4R-V1 (human) is listed as “binds”.

B2: mVenus-TSPAN4 (natural protein, human, UniProt O14817 2-238, looked up)
chain: ARACLQAVKYLMFAFNLLFWLGGCGVLGVGIWLAATQGSFATLSSSFPSLSAANLLIITGAFVMAIGFVGCLGAIKENKCLLLTFFLLLLLVFLLEATIAILFFAYTDKIDRYAQQDLKKGLHLYGTQGNVGLTNAWSIIQTDFRCCGVSNYTDWFEVYNATRVPDSCCLEFSESCGLHAPGTWWKAPCYETVKVWLQENLLAVGIFGLCTALVQILGLTFAMTMYCQVVKADTYCA
notes: tetraspanin 4 (TSPAN4), human; start codon replaced by SpeI-NotI sites coding for a TSAAA linker, mVenus at the intracellular N-terminus; also called mVenus-TSPAN4/pcDNA3.1; source: HEK293T, transiently transfected, in living cells (BRET) and in lysate (co-IP); not shown: mVenus (with TSAAA linker), N-terminal, kept
With B2, the binding entry in the assay with HA-H4R (human) [1] is given as “binds”; with HA-H4R (human) [2], “no binding”.
